# According to the M2OR odorant receptor database:
# Positions count from the first letter of the chain named. This is a selection; strong and weak results do not stand in their true shares. Calls are pooled over several reports, among them a noisy single-well screen. This is one part of the list.
# Tests used:
# Conditions in all cases: stereoisomer not certain
# OR4N4 (Homo sapiens) = target: T1, OR4N4 (Homo sapiens) (UniProt Q8N0Y3)
# T1 sequence (whole entry): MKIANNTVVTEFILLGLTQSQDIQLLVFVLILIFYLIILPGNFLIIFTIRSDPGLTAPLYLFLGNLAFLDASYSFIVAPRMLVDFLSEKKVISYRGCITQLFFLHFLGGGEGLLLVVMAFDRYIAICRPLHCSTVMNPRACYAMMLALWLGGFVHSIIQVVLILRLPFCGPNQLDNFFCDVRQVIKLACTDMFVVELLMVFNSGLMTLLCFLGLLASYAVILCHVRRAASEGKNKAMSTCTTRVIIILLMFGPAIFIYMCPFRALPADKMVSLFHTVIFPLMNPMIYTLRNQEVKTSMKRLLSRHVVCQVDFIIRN
# How it was run: (§1)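 Whether a receptor–molecule pair is responsive (active) rests on the original authors' judgment that its measured signal was statistically different from baseline. Pairs without that judgment are non-responsive (inactive). Sources used varied assay methods, commonly transient luciferase assays in mammalian cell lines.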
# OR4N5 (Homo sapiens) = target: T2, OR4N5 (Homo sapiens) (UniProt Q8IXE1)
# T2 sequence (whole entry): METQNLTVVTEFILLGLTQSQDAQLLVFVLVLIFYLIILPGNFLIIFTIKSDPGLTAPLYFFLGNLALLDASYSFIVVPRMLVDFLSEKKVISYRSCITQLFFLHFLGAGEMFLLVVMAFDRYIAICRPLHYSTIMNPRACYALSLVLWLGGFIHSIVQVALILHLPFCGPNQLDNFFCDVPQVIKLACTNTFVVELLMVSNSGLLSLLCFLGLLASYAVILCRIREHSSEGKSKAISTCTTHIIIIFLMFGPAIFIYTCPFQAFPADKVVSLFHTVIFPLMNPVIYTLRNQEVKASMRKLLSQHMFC
# How it was run: as §1
# OR4P4 [1] = system: T3, OR4P4
# T3 sequence (whole entry): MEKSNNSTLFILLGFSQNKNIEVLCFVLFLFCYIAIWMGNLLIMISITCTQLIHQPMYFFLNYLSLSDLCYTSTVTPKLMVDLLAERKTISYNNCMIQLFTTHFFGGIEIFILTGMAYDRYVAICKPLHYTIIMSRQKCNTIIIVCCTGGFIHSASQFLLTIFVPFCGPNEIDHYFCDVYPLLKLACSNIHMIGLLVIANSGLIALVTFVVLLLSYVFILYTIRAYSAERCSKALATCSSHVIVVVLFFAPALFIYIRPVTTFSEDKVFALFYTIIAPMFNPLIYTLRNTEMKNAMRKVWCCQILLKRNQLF
# How it was run: as §1
# OR4P4 [2] = system: T4, OR4P4; remark: listed apart in the source
# T4 sequence (whole entry): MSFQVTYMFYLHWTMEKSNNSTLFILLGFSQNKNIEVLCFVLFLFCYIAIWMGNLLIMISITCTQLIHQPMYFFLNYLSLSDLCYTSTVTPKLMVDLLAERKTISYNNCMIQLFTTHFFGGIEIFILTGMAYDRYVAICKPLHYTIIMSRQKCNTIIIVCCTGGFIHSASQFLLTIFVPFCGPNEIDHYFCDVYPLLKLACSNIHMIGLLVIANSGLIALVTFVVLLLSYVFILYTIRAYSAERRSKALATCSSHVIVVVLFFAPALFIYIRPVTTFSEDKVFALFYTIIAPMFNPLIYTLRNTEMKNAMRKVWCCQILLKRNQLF
# How it was run: as §1
# OR4Q3 (Homo sapiens) = target: T5, OR4Q3 (Homo sapiens) (UniProt Q8NH05)
# T5 sequence (whole entry): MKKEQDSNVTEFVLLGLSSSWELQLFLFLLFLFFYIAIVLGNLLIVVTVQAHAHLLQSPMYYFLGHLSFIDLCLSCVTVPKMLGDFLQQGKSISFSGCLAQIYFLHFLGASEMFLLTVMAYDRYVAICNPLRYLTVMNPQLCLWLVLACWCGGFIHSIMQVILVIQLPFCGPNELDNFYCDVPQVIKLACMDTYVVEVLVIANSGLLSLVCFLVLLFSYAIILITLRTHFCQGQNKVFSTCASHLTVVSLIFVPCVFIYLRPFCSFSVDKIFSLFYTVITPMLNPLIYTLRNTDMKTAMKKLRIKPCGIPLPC
# How it was run: as §1
# OR4S1 (Homo sapiens) = target: T6, OR4S1 (Homo sapiens) (UniProt Q8NGB4)
# T6 sequence (whole entry): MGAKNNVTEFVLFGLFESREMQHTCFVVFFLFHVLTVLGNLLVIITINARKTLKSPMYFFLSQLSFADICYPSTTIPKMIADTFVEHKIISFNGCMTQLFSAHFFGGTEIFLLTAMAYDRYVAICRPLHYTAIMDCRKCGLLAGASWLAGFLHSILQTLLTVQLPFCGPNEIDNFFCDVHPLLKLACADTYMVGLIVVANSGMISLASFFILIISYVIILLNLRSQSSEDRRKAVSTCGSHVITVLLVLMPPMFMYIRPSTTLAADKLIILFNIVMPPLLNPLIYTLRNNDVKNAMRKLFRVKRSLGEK
# How it was run: as §1
# OR4S2 (Homo sapiens) = target: T7, OR4S2 (Homo sapiens) (UniProt Q8NH73)
# T7 sequence (whole entry): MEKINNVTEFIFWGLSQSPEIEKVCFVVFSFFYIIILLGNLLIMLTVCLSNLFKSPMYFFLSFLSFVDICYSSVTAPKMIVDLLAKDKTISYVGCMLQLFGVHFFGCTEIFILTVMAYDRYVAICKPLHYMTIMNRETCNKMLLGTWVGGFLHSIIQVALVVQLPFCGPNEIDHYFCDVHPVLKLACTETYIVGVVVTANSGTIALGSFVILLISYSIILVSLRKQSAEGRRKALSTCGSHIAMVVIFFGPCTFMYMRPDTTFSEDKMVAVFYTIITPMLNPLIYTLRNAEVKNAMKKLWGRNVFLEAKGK
# How it was run: as §1
# OR4X1 = system: T8, OR4X1
# T8 sequence (whole entry): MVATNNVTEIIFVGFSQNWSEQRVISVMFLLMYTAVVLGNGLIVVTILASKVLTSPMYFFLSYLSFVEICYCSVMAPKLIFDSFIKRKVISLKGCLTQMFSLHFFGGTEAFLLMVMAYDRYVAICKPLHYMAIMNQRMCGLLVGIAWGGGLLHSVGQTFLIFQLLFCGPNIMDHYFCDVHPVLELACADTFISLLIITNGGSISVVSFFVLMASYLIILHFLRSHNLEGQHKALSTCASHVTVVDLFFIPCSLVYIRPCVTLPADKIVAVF
# How it was run: as §1
# OR4X2 (Homo sapiens) = target: T9, OR4X2 (Homo sapiens) (UniProt Q8NGF9)
# T9 sequence (whole entry): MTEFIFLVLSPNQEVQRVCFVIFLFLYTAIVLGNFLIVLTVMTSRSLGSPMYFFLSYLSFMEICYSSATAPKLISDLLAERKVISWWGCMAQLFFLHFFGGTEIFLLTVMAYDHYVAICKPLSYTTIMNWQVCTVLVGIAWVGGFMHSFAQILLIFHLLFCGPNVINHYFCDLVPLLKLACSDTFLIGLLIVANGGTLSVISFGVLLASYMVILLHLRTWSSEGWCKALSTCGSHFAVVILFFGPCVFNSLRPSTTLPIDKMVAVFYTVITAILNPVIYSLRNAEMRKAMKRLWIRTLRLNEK
# How it was run: as §1
# OR51A2 (Homo sapiens) = target: T10, OR51A2 (Homo sapiens) (UniProt Q8NGJ7)
# T10 sequence (whole entry): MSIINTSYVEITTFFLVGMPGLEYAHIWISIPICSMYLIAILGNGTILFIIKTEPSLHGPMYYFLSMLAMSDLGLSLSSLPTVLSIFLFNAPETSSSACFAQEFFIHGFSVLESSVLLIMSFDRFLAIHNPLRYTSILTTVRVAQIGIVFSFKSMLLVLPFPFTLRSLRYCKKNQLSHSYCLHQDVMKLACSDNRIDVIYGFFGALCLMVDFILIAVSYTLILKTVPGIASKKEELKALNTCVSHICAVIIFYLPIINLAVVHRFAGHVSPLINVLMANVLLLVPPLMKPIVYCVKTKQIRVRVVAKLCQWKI
# How it was run: as §1
# OR51A4 (Homo sapiens) = target: T11, OR51A4 (Homo sapiens) (UniProt Q8NGJ6)
# T11 sequence (whole entry): T10 sequence (whole entry) with G59E, T94I, S97N, S167N, P227L, E235Q, G267R, M288T, K289N, W311R
# How it was run: as §1
# OR51B2 (Homo sapiens) = target: T12, OR51B2 (Homo sapiens) (UniProt Q9Y5P1)
# T12 sequence (whole entry): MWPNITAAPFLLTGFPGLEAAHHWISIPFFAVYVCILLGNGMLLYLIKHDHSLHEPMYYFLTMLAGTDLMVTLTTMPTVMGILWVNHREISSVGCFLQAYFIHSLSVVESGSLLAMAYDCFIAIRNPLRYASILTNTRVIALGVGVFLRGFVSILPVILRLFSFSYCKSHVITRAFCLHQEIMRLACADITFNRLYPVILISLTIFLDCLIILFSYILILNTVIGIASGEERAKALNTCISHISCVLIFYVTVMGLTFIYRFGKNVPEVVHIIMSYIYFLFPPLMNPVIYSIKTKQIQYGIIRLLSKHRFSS
# How it was run: as §1
# OR51B5 (Homo sapiens) = target: T13, OR51B5 (Homo sapiens) (UniProt Q9H339)
# T13 sequence (whole entry): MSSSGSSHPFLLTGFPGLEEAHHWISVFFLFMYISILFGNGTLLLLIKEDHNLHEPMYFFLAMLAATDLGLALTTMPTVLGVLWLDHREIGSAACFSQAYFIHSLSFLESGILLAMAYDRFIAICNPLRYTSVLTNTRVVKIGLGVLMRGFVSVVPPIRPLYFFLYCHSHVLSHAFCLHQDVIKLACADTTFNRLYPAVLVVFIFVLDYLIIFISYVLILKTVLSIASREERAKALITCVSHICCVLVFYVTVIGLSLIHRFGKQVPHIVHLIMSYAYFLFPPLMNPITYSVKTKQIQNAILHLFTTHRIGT
# How it was run: as §1
# 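Note: active if original authors judged signal statistically different from baseline.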
SMILES,odorant receptor agonist call (OR4N4 (Homo sapiens)),odorant receptor agonist call (OR4N5 (Homo sapiens)),odorant receptor agonist call (OR4P4 [1]),odorant receptor agonist call (OR4P4 [2]),odorant receptor agonist call (OR4Q3 (Homo sapiens)),odorant receptor agonist call (OR4S1 (Homo sapiens)),odorant receptor agonist call (OR4S2 (Homo sapiens)),odorant receptor agonist call (OR4X1),odorant receptor agonist call (OR4X2 (Homo sapiens)),odorant receptor agonist call (OR51A2 (Homo sapiens)),odorant receptor agonist call (OR51A4 (Homo sapiens)),odorant receptor agonist call (OR51B2 (Homo sapiens)),odorant receptor agonist call (OR51B5 (Homo sapiens))
CC(C)=CCCC(C)=CC=O,inactive,inactive,inactive,inactive,inactive,inactive,inactive,inactive,inactive,active,active,active,
CC(=O)OC(C)(C)C1CC=C(C)CC1 (stereo unspecified),inactive,inactive,inactive,inactive,inactive,inactive,inactive,inactive,inactive,inactive,,inactive,
C=CCc1ccc(O)c(OC)c1,,,,,,,,,,,,,inactive
CC(C)C=O,inactive,inactive,inactive,inactive,inactive,inactive,inactive,inactive,inactive,inactive,,inactive,
CC1COCc2cc3c(cc21)C(C)(C)C(C)C3(C)C (stereo unspecified),active,inactive,active,inactive,active,active,active,active,inactive,active,,inactive,
C=CCc1ccc(OC(C)=O)c(OC)c1,inactive,inactive,inactive,inactive,inactive,inactive,inactive,inactive,inactive,active,,active,
CC12CCC(C1)C(C)(C)C2=O (stereo unspecified),inactive,inactive,inactive,inactive,inactive,inactive,inactive,inactive,inactive,inactive,,inactive,
CC(C)C(=O)O,inactive,inactive,inactive,inactive,inactive,inactive,inactive,inactive,inactive,inactive,,inactive,
CCCCCCCCC=O,,,,,,,,,,,inactive,,inactive
CC(C)(O)CCCC1=CCC(C=O)CC1 (stereo unspecified),,,,,,,,,,inactive,,inactive,inactive
CC1CCC(C(C)C)C(O)C1 (stereo unspecified),inactive,inactive,inactive,inactive,inactive,inactive,inactive,inactive,inactive,inactive,,inactive,inactive
CC=Cc1ccc(O)c(OC)c1,inactive,inactive,inactive,inactive,inactive,inactive,active,inactive,inactive,active,,active,
O=CCc1ccccc1,inactive,inactive,inactive,inactive,inactive,inactive,inactive,inactive,inactive,active,,inactive,
C=CC(C)(O)CCC=C(C)C (stereo unspecified),inactive,inactive,inactive,inactive,inactive,inactive,inactive,inactive,inactive,inactive,,inactive,inactive
CCCCCCCC=O,inactive,inactive,inactive,inactive,inactive,inactive,inactive,inactive,inactive,inactive,,inactive,inactive
C=C(C)C1CC=C(C)C(=O)C1 (stereo unspecified),,,,,,,,,,,,,inactive
COc1cc(C=O)ccc1O,inactive,inactive,inactive,inactive,inactive,inactive,inactive,inactive,inactive,inactive,,inactive,inactive
CCC=CCCO,inactive,inactive,inactive,inactive,inactive,inactive,inactive,inactive,inactive,inactive,,inactive,
CCCCCCCC=CC=O,inactive,inactive,inactive,inactive,inactive,inactive,inactive,inactive,inactive,inactive,,inactive,
CC(C)(C)c1ccc(CCC=O)cc1,inactive,inactive,inactive,inactive,inactive,inactive,inactive,inactive,inactive,inactive,,inactive,
CCC1(O)C2(C)CCC(C2)C1(C)C (stereo unspecified),inactive,inactive,inactive,inactive,inactive,inactive,inactive,inactive,inactive,inactive,,inactive,
CCCCCCCCCCC=O,inactive,inactive,inactive,inactive,inactive,inactive,inactive,inactive,inactive,inactive,,inactive,inactive
C=C(C)C1CCC2=CC(=O)CC(C)C2(C)C1 (stereo unspecified),,,,,,,,,,inactive,,active,
CCCCO,inactive,inactive,inactive,inactive,inactive,inactive,inactive,inactive,inactive,inactive,,inactive,inactive
c1cnccn1,inactive,inactive,inactive,inactive,inactive,inactive,inactive,inactive,inactive,inactive,,inactive,
CC(=O)OC1CC2CCC1(C)C2(C)C (stereo unspecified),inactive,inactive,inactive,inactive,inactive,inactive,inactive,inactive,inactive,inactive,,inactive,
CCCCCC(=O)O,inactive,inactive,inactive,inactive,inactive,inactive,inactive,inactive,inactive,inactive,,inactive,inactive
CC12CCC(CC1)C(C)(C)O2,inactive,inactive,inactive,inactive,inactive,inactive,inactive,inactive,inactive,inactive,,inactive,
CC(C)CCC(=O)O,inactive,inactive,inactive,inactive,inactive,inactive,inactive,inactive,inactive,inactive,,inactive,

# Some entries already given, limited to odorant receptor agonist call (OR4S1 (Homo sapiens)), odorant receptor agonist call (OR51A4 (Homo sapiens)) and odorant receptor agonist call (OR4N4 (Homo sapiens)):
SMILES	odorant receptor agonist call (OR4S1 (Homo sapiens))	odorant receptor agonist call (OR51A4 (Homo sapiens))	odorant receptor agonist call (OR4N4 (Homo sapiens))
c1cnccn1	inactive		inactive
CC(=O)OC1CC2CCC1(C)C2(C)C (stereo unspecified)	inactive		inactive
